For assay [1], the target named is T1, E938A mutant of the TLDc domain of Ncoa7 (775–943) (mouse) (UniProt Q6DFV7).
T1 sequence: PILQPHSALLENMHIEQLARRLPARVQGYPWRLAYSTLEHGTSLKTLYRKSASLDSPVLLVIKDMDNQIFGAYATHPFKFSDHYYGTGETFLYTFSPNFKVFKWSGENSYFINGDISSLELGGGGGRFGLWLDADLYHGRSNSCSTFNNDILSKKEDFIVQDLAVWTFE
Briefly: pull-down; about 14 pmol purified GST-tagged bait on glutathione-Sepharose 4B beads, incubated with mouse kidney lysate (25 mM Tris-HCl pH 7.4, 150 mM NaCl, 5 mM EDTA, 1% Triton X-100); western blot with anti-B1; only the target purified. Background: In western blotting, separated proteins are transferred to a membrane and probed.

Protein sequences, listed by entry. Tags and fused reporters are not part of them. Residues count along the entry.
UniProt Q8K0P3, residues 235-455: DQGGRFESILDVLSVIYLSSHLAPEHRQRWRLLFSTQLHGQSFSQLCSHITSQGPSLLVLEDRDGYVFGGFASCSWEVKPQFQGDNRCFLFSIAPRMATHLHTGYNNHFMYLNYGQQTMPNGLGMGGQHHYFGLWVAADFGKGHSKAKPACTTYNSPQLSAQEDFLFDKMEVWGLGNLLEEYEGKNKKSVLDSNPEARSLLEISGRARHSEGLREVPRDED
UniProt Q91YH6: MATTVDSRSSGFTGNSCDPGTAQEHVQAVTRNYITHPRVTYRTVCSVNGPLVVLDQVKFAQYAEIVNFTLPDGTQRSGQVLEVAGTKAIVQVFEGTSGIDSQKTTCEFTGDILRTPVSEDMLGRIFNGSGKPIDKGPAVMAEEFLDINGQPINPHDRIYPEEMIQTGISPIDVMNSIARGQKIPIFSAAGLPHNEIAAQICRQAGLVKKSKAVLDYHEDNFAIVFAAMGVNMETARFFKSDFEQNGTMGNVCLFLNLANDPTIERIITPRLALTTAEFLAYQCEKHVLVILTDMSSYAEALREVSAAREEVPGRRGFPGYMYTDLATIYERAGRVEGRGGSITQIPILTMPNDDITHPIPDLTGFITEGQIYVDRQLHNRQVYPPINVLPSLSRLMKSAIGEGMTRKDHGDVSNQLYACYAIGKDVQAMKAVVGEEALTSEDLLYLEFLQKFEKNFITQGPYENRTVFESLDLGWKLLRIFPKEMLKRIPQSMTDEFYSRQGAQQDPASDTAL

Assay [2] concerns the target T2, L926A mutant of the TLDc domain of Ncoa7 (775–943) (mouse) (UniProt Q6DFV7).
T2 sequence: T1 sequence with L152A, A164E
The assay is described as above.

Another assay concerns the target T3, Ncoa7 (751–943) (mouse) (UniProt Q6DFV7).
T3 sequence: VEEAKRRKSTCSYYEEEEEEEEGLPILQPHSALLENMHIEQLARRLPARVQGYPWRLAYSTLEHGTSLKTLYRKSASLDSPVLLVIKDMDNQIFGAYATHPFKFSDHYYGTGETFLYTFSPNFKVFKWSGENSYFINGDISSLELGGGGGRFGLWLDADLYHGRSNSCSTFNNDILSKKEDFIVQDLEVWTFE
The description is as above.

Assay [3] concerns the target T4, Ncoa7 TLDc domain (775–943) (mouse) (UniProt Q6DFV7).
T4 sequence: T1 sequence with A164E
The assay is described as above.

The target in assay [4] is T5, S817A mutant of the TLDc domain of Ncoa7 (775–943) (mouse) (UniProt Q6DFV7).
T5 sequence: T1 sequence with S43A, A164E
The assay is described as above.

Assay [5] concerns the target T6, G815A mutant of the TLDc domain of Ncoa7 (775–943) (mouse) (UniProt Q6DFV7).
T6 sequence: T1 sequence with G41A, A164E
Description: condition: approximately 14 pmol of GST-tagged protein on beads; pull-down; about 14 pmol purified GST-tagged bait on glutathione-Sepharose 4B beads, incubated with mouse kidney lysate (25 mM Tris-HCl pH 7.4, 150 mM NaCl, 5 mM EDTA, 1% Triton X-100); western blot with anti-B1; only the target purified.

Assay [6] addresses T7, G845A mutant of the TLDc domain of Ncoa7 (775–943) (mouse) (UniProt Q6DFV7).
T7 sequence: T1 sequence with G71A, A164E
The assay is described as above.

For another assay, the target named is T8, Ncoa7 (593–750) (mouse) (UniProt Q6DFV7).
T8 sequence: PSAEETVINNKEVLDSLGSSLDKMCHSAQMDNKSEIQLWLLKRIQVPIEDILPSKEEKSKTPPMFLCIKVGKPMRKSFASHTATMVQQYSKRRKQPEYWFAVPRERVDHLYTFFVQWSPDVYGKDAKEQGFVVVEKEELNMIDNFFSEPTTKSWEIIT
The description is as above.

Assay [7] addresses Tldc1 TLDc domain (235–455) (mouse) (UniProt Q8K0P3). Described as above.

Positions count from the first letter of the chain named. Results are given in words; binding and its absence hold for the method and conditions named. In cells and extracts the contact can be indirect. Some binding calls cover weakened binding; strength is not graded here.

In the case of “B1 subunit of V-ATPase (from UniProt Q91YH6 1-513)”, the binding entry in assay [1] is given as “binds”; in [2], “binds weakly”; in the assay with Ncoa7 (751–943) (mouse) it was “binds”; in assay [3] it was “binds”; in assay [4] it was “binds”; in [5] it was “no binding”. In addition, the binding result (in assay [6]; with Ncoa7 (593–750) (mouse); in [7]) was “no binding” each time.

The record behind these values is article PMC8608904.
